Results as given in PubChem BioAssay AID192 (DTP/NCI, 2004).
The list shows only some results of the screen, not a fair sample: it is rich in T/C values a quarter to a half above the control, in often repeated tests (any T/C) and in doses without a T/C. Other doses and runs of a compound stand elsewhere. T/C gives the treated animals as a percentage of the vehicle group. Some entries give survivors of the animals treated and no T/C: the source holds a T/C of zero for them, seemingly a mark for toxic or unscored doses. Some doses without a T/C left all or most animals alive at the check, yet need not have been tolerated: survival well below the control is almost never listed, so the zero probably covers shortened survival too. Survivors were counted at the toxicity check, usually on the fifth day, unless a day is given; later deaths do not show. Schedule codes are those of the source, taken here to give the interval after Q, in days (D) or hours (H), and the number of doses after X. Some entries hold several experiments; the results are listed from low to high. Brackets with × say how often a value occurs here. For survival time, the PubChem record calls one and a half times the control and up active, and a quarter to a half above the control has no call in these data; cut-offs in other NCI protocols can differ. Some T/C values carry the count of animals alive at the toxicity check (mostly the fifth day); where none is given, no animal had died by that day.

System: BDF1 mice, B16 melanoma ip, median survival T/C
Assay: NCI In Vivo Anticancer Drug Screen. Data for tumor model B16 Melanoma (intraperitoneal) in B6D2F1 (BDF1) mice
Conditions: T/C endpoint: median survival time, higher T/C = longer survival
Method in brief: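 In this screen, activity was judged from survival or tumor size in treated versus vehicle-treated tumor-bearing mice, reported as T/C.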

[1] = dose: 2.0 mg/kg/injection, schedule: Q01DX009 (ip), vehicle: saline
[2] = dose: 5.0 mg/kg/injection, schedule: Q01DX001 (ip), vehicle: water

CC[C@]1(O)C[C@H]2CN(CCc3c([nH]c4ccccc34)[C@@](C(=O)OC)(c3cc4c(cc3OC)N(C=O)[C@H]3[C@@](O)(C(=O)OC)[C@H](OC(C)=O)[C@]5(CC)C=CCN6CC[C@]43[C@@H]65)C2)C1
T/C (dose: 0.03 mg/kg/injection, schedule: Q01DX009 (ip), vehicle: saline): 145 % of control
T/C (dose: 0.03 mg/kg/injection, schedule: Q01DX017 (ip), vehicle: saline): 131 % of control
T/C (dose: 0.05 mg/kg/injection, schedule: Q01DX009 (ip), vehicle: saline): 126 and 148 % of control
T/C (dose: 0.06 mg/kg/injection, schedule: Q01DX009 (ip), vehicle: saline): 145 % of control
T/C (dose: 0.06 mg/kg/injection, schedule: Q01DX009 (ip), vehicle: water): 135 % of control
T/C (dose: 0.07 mg/kg/injection, schedule: Q01DX009 (ip), vehicle: saline): 138 % of control
T/C (dose: 0.08 mg/kg/injection, schedule: Q01DX009 (ip), vehicle: water): 137 % of control [9 of 10 alive]
T/C (dose: 0.1 mg/kg/injection, schedule: Q01DX009 (ip), vehicle: saline): 143 and 146 % of control
T/C (dose: 0.12 mg/kg/injection, schedule: Q01DX009 (ip), vehicle: saline): 143 % of control
T/C (dose: 0.13 mg/kg/injection, schedule: Q01DX009 (ip), vehicle: saline, evaluated on day 5): 160 % of control
T/C (dose: 0.13 mg/kg/injection, schedule: Q01DX009 (ip), vehicle: saline, evaluated on day 60): 134, 140, 150, 165 % of control
T/C (dose: 0.13 mg/kg/injection, schedule: Q01DX009 (ip), vehicle: saline, evaluated on day 90): 160 % of control
T/C (dose: 0.13 mg/kg/injection, schedule: Q01DX009 (ip), vehicle: water, evaluated on day 45): 163 % of control
T/C (dose: 0.13 mg/kg/injection, schedule: Q01DX009 (ip), vehicle: water, evaluated on day 60): 127, 130, 147, 162 % of control
T/C (dose: 0.15 mg/kg/injection, schedule: Q04DX003 (ip), vehicle: saline): 129 % of control
T/C (dose: 0.2 mg/kg/injection, schedule: Q04DX003 (ip), vehicle: water): 134 % of control
T/C (dose: 0.22 mg/kg/injection, schedule: Q01DX009 (ip), vehicle: water): 134 and 148 % of control
T/C (dose: 0.23 mg/kg/injection, schedule: Q04DX003 (ip), vehicle: saline): 134 % of control
T/C (dose: 0.25 mg/kg/injection, schedule: Q01DX009 (ip), vehicle: saline, evaluated on day 5): 171 % of control
T/C (dose: 0.25 mg/kg/injection, schedule: Q01DX009 (ip), vehicle: saline, evaluated on day 45): 120 (2×), 147, 150, 171 % of control
T/C (dose: 0.25 mg/kg/injection, schedule: Q01DX009 (ip), vehicle: saline, evaluated on day 60): 105, 110 (2×), 111, 115 [5 of 6 alive], 116, 121, 130, 140, 145, 150 (2×), 150 [5 of 6 alive] (2×), 152, 154, 156, 158, 161, 167, 168, 170 (3×), 171, 176 [5 of 6 alive], 182, 200, 212 % of control
T/C (dose: 0.25 mg/kg/injection, schedule: Q01DX009 (ip), vehicle: saline, evaluated on day 90): 171 % of control [9 of 10 alive]
T/C (dose: 0.25 mg/kg/injection, schedule: Q01DX009 (ip), vehicle: water): 141 % of control
T/C (dose: 0.25 mg/kg/injection, schedule: Q04DX003 (ip), vehicle: saline): 127, 129, 135 % of control
T/C (dose: 0.25 mg/kg/injection, schedule: Q04DX005 (ip), vehicle: saline): 145 % of control
T/C (dose: 0.3 mg/kg/injection, schedule: Q04DX003 (ip), vehicle: saline): 149 % of control
survivor count (dose: 0.36 mg/kg/injection, schedule: Q01DX009 (ip), vehicle: water): 10 of 10
T/C (dose: 0.36 mg/kg/injection, schedule: Q04DX003 (ip), vehicle: saline): 147 % of control
T/C (dose: 0.38 mg/kg/injection, schedule: Q04DX003 (ip), vehicle: saline): 133 % of control
T/C (dose: 0.39 mg/kg/injection, schedule: Q04DX003 (ip), vehicle: water): 131 % of control
T/C (dose: 0.4 mg/kg/injection, schedule: Q01DX009 (ip), vehicle: saline): 142 % of control [5 of 6 alive]
T/C (dose: 0.4 mg/kg/injection, schedule: Q04DX003 (ip), vehicle: saline): 145 % of control
T/C (dose: 0.4 mg/kg/injection, schedule: Q04DX003 (ip), vehicle: water): 147 % of control
T/C (dose: 0.5 mg/kg/injection, schedule: Q01DX005 (ip), vehicle: saline): 134 % of control
T/C (dose: 0.5 mg/kg/injection, schedule: Q01DX009 (ip), vehicle: saline, evaluated on day 5): 64 % of control
T/C (dose: 0.5 mg/kg/injection, schedule: Q01DX009 (ip), vehicle: saline, evaluated on day 45): 125 and 143 % of control
T/C (dose: 0.5 mg/kg/injection, schedule: Q01DX009 (ip), vehicle: saline, evaluated on day 60): 87, 91 [5 of 6 alive], 100 (2×), 114, 130, 134, 140, 145, 155, 165, 175, 179, 182, 194 % of control [5 of 6 alive]
survivor count (dose: 0.5 mg/kg/injection, schedule: Q01DX009 (ip), vehicle: saline): 5 of 6, 10 of 10, 6 of 6 (2×)
T/C (dose: 0.5 mg/kg/injection, schedule: Q04DX003 (ip), vehicle: saline): 132 and 141 % of control
survivor count (dose: 0.6 mg/kg/injection, schedule: Q01DX009 (ip), vehicle: water): 10 of 10
T/C (dose: 0.65 mg/kg/injection, schedule: Q04DX003 (ip), vehicle: water): 130 and 140 % of control
survivor count (dose: 0.8 mg/kg/injection, schedule: Q01DX009 (ip), vehicle: saline): 3 of 6 and 6 of 6
T/C (dose: 0.8 mg/kg/injection, schedule: Q04DX003 (ip), vehicle: saline): 143 % of control
T/C (dose: 0.84 mg/kg/injection, schedule: Q01DX005 (ip), vehicle: saline): 128 % of control
T/C (dose: 0.9 mg/kg/injection, schedule: Q04DX003 (ip), vehicle: saline): 132 % of control
T/C (dose: 1.0 mg/kg/injection, schedule: Q01DX009 (ip), vehicle: saline, evaluated on day 45): 102 and 128 % of control
T/C (dose: 1.0 mg/kg/injection, schedule: Q01DX009 (ip), vehicle: saline, evaluated on day 60): 86, 88, 89, 90 % of control
survivor count (dose: 1.0 mg/kg/injection, schedule: Q01DX009 (ip), vehicle: saline): 2 of 6, 3 of 6, 5 of 6 (2×), 9 of 10, 6 of 6 (2×)
survivor count (dose: 1.0 mg/kg/injection, schedule: Q01DX009 (ip), vehicle: water): 9 of 10 and 10 of 10 (2×)
T/C (dose: 1.0 mg/kg/injection, schedule: Q04DX003 (ip), vehicle: saline, evaluated on day 5): 169 % of control
T/C (dose: 1.0 mg/kg/injection, schedule: Q04DX003 (ip), vehicle: saline, evaluated on day 60): 109, 132, 176, 179 % of control
T/C (dose: 1.08 mg/kg/injection, schedule: Q01DX001 (ip), vehicle: water): 125 % of control
T/C (dose: 1.08 mg/kg/injection, schedule: Q04DX003 (ip), vehicle: water): 139 and 141 % of control
survivor count (dose: 1.6 mg/kg/injection, schedule: Q01DX009 (ip), vehicle: saline): 3 of 6 and 6 of 6
survivor count (dose: 1.6 mg/kg/injection, schedule: Q04DX003 (ip), vehicle: water): 10 of 10
survivor count (dose: 1.67 mg/kg/injection, schedule: Q04DX003 (ip), vehicle: saline): 9 of 10
T/C (dose: 1.8 mg/kg/injection, schedule: Q04DX003 (ip), vehicle: water): 147 % of control
T/C (dose: 2.0 mg/kg/injection, schedule: Q01DX001 (ip), vehicle: saline): 129 % of control
T/C [1]: 89 and 110 % of control [5 of 6 alive]
survivor count [1]: 0 of 6, 1 of 6, 2 of 6 (2×), 3 of 6 (2×), 4 of 6, 7 of 10, 5 of 6 (2×), 10 of 10, 6 of 6 (2×), 7 of 7
survivor count (dose: 2.0 mg/kg/injection, schedule: Q04DX003 (ip), vehicle: saline): 10 of 10
survivor count (dose: 2.0 mg/kg/injection, schedule: Q04DX005 (ip), vehicle: saline): 10 of 10
survivor count (dose: 2.5 mg/kg/injection, schedule: Q04DX003 (ip), vehicle: saline): 0 of 5
survivor count (dose: 2.78 mg/kg/injection, schedule: Q04DX003 (ip), vehicle: saline): 10 of 10
T/C (dose: 3.0 mg/kg/injection, schedule: Q01DX001 (ip), vehicle: water): 127 and 130 % of control
survivor count (dose: 3.2 mg/kg/injection, schedule: Q01DX009 (ip), vehicle: saline): 2 of 6 and 3 of 6
survivor count (dose: 3.2 mg/kg/injection, schedule: Q04DX003 (ip), vehicle: water): 10 of 10
T/C (dose: 4.0 mg/kg/injection, schedule: Q01DX001 (ip), vehicle: saline): 131 % of control
T/C [2]: 131 % of control
survivor count [2]: 10 of 10
survivor count (dose: 6.4 mg/kg/injection, schedule: Q01DX009 (ip), vehicle: saline): 0 of 6 and 2 of 6
survivor count (dose: 8.0 mg/kg/injection, schedule: Q01DX001 (ip), vehicle: saline): 9 of 10
survivor count (dose: 12.8 mg/kg/injection, schedule: Q01DX009 (ip), vehicle: saline): 0 of 6 and 1 of 6
T/C (dose: 31.25 micrograms/kg/injection, schedule: Q01DX009 (ip), vehicle: water): 137 % of control
T/C (dose: 130.0 micrograms/kg/injection, schedule: Q01DX009 (ip), vehicle: water): 134 % of control
T/C (dose: 216.0 micrograms/kg/injection, schedule: Q01DX009 (ip), vehicle: water): 145 % of control
T/C (dose: 216.0 micrograms/kg/injection, schedule: Q04DX003 (ip), vehicle: saline): 126 % of control
T/C (dose: 233.0 micrograms/kg/injection, schedule: Q04DX003 (ip), vehicle: saline): 127 % of control
T/C (dose: 360.0 micrograms/kg/injection, schedule: Q01DX009 (ip), vehicle: water): 143 % of control
T/C (dose: 360.0 micrograms/kg/injection, schedule: Q04DX003 (ip), vehicle: saline): 126 and 134 % of control [9 of 10 alive]
survivor count (dose: 500.0 micrograms/kg/injection, schedule: Q01DX009 (ip), vehicle: water): 10 of 10
survivor count (dose: 600.0 micrograms/kg/injection, schedule: Q01DX009 (ip), vehicle: saline): 9 of 10
T/C (dose: 600.0 micrograms/kg/injection, schedule: Q01DX009 (ip), vehicle: water): 141 % of control
T/C (dose: 600.0 micrograms/kg/injection, schedule: Q04DX003 (ip), vehicle: saline): 130 % of control
survivor count (dose: 1000.0 micrograms/kg/injection, schedule: Q01DX009 (ip), vehicle: water): 9 of 10
T/C (dose: 1670.0 micrograms/kg/injection, schedule: Q04DX003 (ip), vehicle: saline): 137 % of control
